Reference: PubChem BioAssay AID504791 (Drosophila RNAi Screening Center, 2011)
Test: 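Factors in Argonaute-based small RNA production and activity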 (primary screen). Cells: Drosophila S2-derived reporter cells. Knock-down reagent: long dsRNA against Drosophila genes, about 150-250 ng dsRNA per well (siRNA assay); about 80-120 ng (miRNA assay). Time to read-out: about 5 days (siRNA assay); about 4 days (miRNA assay). Conditions: copper sulfate induction of reporters: 25 µM (siRNA assay); 200 mM stated (miRNA assay), 1-2 days before reading. Detection: 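Per-well ratio of Renilla over firefly light, expressed relative to that plate's average ratio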. Direction: siRNA reporter hit score: higher = 3 marks a strong hit with raised ratio; -3 a strong hit with lowered ratio. Rule for the call: 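First-pass picks had plate-scaled ratios over 1.5 for the siRNA assay, over 1.6 for the miRNA assay, or under 0.6; two distinct dsRNAs had to score alike on retest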.
The deposit covers about 23,000 reagents; this is a random part of those that have a named target and a result. Over the whole deposit, 199 (0.86%) are marked active. 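Plate-scaled ratios behind the calls are not deposited; printed light signals are raw; many rows marked increased or decreased are still called inactive.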 Reagents against one gene are numbered here. A plus sign joins genes that one reagent is predicted to hit. Further read-outs or replicates are left out here.

| predicted target | dsRNA no. | siRNA reporter hit score | stable siRNA reporter change | miRNA reporter change | stable assay Renilla, run 1 (luminescence) | outcome |
| --- | --- | --- | --- | --- | --- | --- |
| CG31650 (GeneID 326150) | 1 | – | – | – | 21707 | inactive |
| CG8997 (GeneID 34799) | 1 | – | – | – | 7035 | inactive |
| CG9517 (retired record) (GeneID 32417) | 1 | – | – | – | 5271 | inactive |
| CG9517 (retired record) (GeneID 32417) | 2 | – | – | – | 5947 | inactive |
| dpr10 (GeneID 39180) | 1 | – | – | – | 4215 | inactive |
| dpr10 (GeneID 39180) | 2 | – | – | – | 5511 | inactive |
| dpr10 (GeneID 39180) | 3 | – | – | – | 7019 | inactive |
| dpr10 (GeneID 39180) | 4 | – | – | – | 6890 | inactive |
| Lint-O (GeneID 31254) | 1 | – | – | – | 5220 | inactive |
| cola + swif | 1 | – | – | – | 6658 | inactive |
| cola + swif | 2 | – | – | – | 9634 | inactive |
| CG8043 (GeneID 41030) | 1 | – | – | – | 7270 | inactive |
| hubl (GeneID 246567) | 1 | – | – | – | 6438 | inactive |
| Arpc1 (GeneID 34793) | 1 | – | – | – | 7278 | inactive |
| bisc (GeneID 37443) | 1 | – | – | – | 31709 | inactive |
| CG30195 (GeneID 37592) | 1 | – | – | – | 5999 | inactive |
| CG31955 (GeneID 319045) | 1 | – | reporter ratio lowered past the hit cutoff | – | 3591 | inactive |
| drosha (GeneID 35747) | 1 | – | – | reporter ratio raised past the hit cutoff | 7139 | active |
| PI31 (GeneID 36277) | 1 | – | – | – | 8124 | inactive |
| CG5397 (GeneID 33313) | 1 | – | – | – | 35661 | inactive |
| Dnaaf5 (GeneID 318680) | 1 | – | – | – | 5155 | inactive |
| Ublcp1 (GeneID 42726) | 1 | – | – | – | 7307 | inactive |
| Art4 (GeneID 41219) | 1 | – | – | – | 5907 | inactive |
| Tsp39D (GeneID 35405) | 1 | – | – | – | 6051 | inactive |
| plu (GeneID 44848) | 1 | – | – | – | 5918 | inactive |
| CG6652 (GeneID 39905) | 1 | – | – | – | 7710 | inactive |
| Mppe (GeneID 36285) | 1 | – | – | – | 8682 | inactive |
| slow (GeneID 38540) | 1 | – | – | – | 7614 | inactive |
| slow (GeneID 38540) | 2 | – | – | – | 5235 | inactive |
| Rpn13R (GeneID 31433) | 1 | – | – | – | 6402 | inactive |
| CG9636 (GeneID 40967) | 1 | – | – | – | 8814 | inactive |
| SLC22A (GeneID 40437) | 1 | – | – | – | 6538 | inactive |
| SLC22A (GeneID 40437) | 2 | – | – | – | 5811 | inactive |
| CG33770 (GeneID 3772256) | 1 | – | – | – | 8399 | inactive |
| snRNA:U1:95Cc (GeneID 3772462) | 1 | – | – | – | 4067 | inactive |
| Hex-A (GeneID 45875) | 1 | – | – | – | 4616 | inactive |
| HLH3B (GeneID 31249) | 1 | – | – | – | 5695 | inactive |
| JYalpha (GeneID 5740846) | 1 | – | – | – | 6710 | inactive |
| TMEM216 (GeneID 41035) | 1 | – | – | – | 5695 | inactive |
| CG6927 (GeneID 31419) | 1 | – | – | – | 7479 | inactive |
| CG3358 (GeneID 35604) | 1 | – | – | – | 2.93e5 | inactive |
| Ir7e (GeneID 7354417) | 1 | – | – | – | 4947 | inactive |
| bdl (GeneID 33635) | 1 | – | – | – | 19155 | inactive |
| CG10474 (GeneID 37211) | 1 | – | – | – | 6582 | inactive |
| knk (GeneID 47137) | 1 | – | – | – | 6903 | inactive |
| SMC3 (GeneID 32627) | 1 | – | – | – | 4828 | inactive |
| crn (GeneID 31208) | 1 | – | – | – | 6587 | inactive |
| crn (GeneID 31208) | 2 | – | – | – | 6947 | inactive |
| crn (GeneID 31208) | 3 | – | – | – | 6470 | inactive |
| CR33318 (GeneID 3771976) | 1 | – | – | – | 5064 | inactive |
| LSm7 (GeneID 35003) | 1 | – | – | – | 8379 | inactive |
| Cyp6v1 (GeneID 33056) | 1 | – | – | – | 6043 | inactive |
| CG1958 (GeneID 31661) | 1 | – | – | – | 5151 | inactive |
| CG7791 (GeneID 35511) | 1 | – | – | – | 10303 | inactive |
| CG31683 + CG18858 | 1 | – | – | – | 6870 | inactive |
| CG5810 (GeneID 42513) | 1 | – | – | – | 8059 | inactive |
| CG5810 (GeneID 42513) | 2 | – | – | – | 9686 | inactive |
| Lsp2 (GeneID 45326) | 1 | – | – | – | 7030 | inactive |
| Lsp2 (GeneID 45326) | 2 | – | – | – | 5826 | inactive |
| CG13108 (GeneID 34240) | 1 | – | – | – | 7919 | inactive |
| CG13539 (GeneID 37680) | 1 | – | – | – | 6111 | inactive |
| Abl (GeneID 45821) | 1 | – | – | – | 7170 | inactive |
| Abl (GeneID 45821) | 2 | – | – | reporter ratio raised past the hit cutoff | 4834 | inactive |
| CG10252 (GeneID 42794) | 1 | – | – | – | 10969 | inactive |
| CG31415 (GeneID 318722) | 1 | – | – | – | 4184 | inactive |

Copied from the entries so far (5 entries):
| predicted target | dsRNA no. | siRNA reporter hit score | stable siRNA reporter change | miRNA reporter change | stable assay Renilla, run 1 (luminescence) | outcome |
| --- | --- | --- | --- | --- | --- | --- |
| CG7791 (GeneID 35511) | 1 | – | – | – | 10303 | inactive |
| CG31683 + CG18858 | 1 | – | – | – | 6870 | inactive |
| CG5810 (GeneID 42513) | 1 | – | – | – | 8059 | inactive |
| CG5810 (GeneID 42513) | 2 | – | – | – | 9686 | inactive |
| Lsp2 (GeneID 45326) | 1 | – | – | – | 7030 | inactive |

Additional entries follow:
| predicted target | dsRNA no. | siRNA reporter hit score | stable siRNA reporter change | miRNA reporter change | stable assay Renilla, run 1 (luminescence) | outcome |
| --- | --- | --- | --- | --- | --- | --- |
| CG31643 (GeneID 318867) | 1 | – | – | – | 4599 | inactive |
| CG6441 (GeneID 34029) | 1 | – | – | – | 9745 | inactive |
| hale (GeneID 40183) | 1 | – | – | – | 8048 | inactive |
| CG12229 (GeneID 39945) | 1 | – | – | – | 8324 | inactive |
| Nop17l (GeneID 35730) | 1 | – | – | – | 8038 | inactive |
| m-cup (GeneID 42076) | 1 | – | – | – | 6891 | inactive |
| m (GeneID 44835) | 1 | – | – | – | 5856 | inactive |
| Nrk (GeneID 36445) | 1 | – | – | – | 6064 | inactive |
| CG13000 (GeneID 32685) | 1 | – | – | – | 4867 | inactive |
| nht (GeneID 34902) | 1 | – | – | – | 5031 | inactive |
| CG13476 (GeneID 39602) | 1 | – | – | – | 7954 | inactive |
| Tsp42El (GeneID 35622) | 1 | – | – | – | 86129 | inactive |
| Or19a (GeneID 59214) | 1 | – | – | – | 5964 | inactive |
| ftz-f1 (GeneID 40045) | 1 | – | – | – | 7006 | inactive |
| Asator (GeneID 43794) | 1 | – | – | – | 5978 | inactive |
| CG10628 (GeneID 35263) | 1 | – | – | – | 6186 | inactive |
| CG12659 (GeneID 50403) | 1 | – | – | – | 5579 | inactive |
| Mrp4 (GeneID 41387) | 1 | – | – | – | 5871 | inactive |
| CG6138 (GeneID 34454) | 1 | – | – | – | 8242 | inactive |
| gdl-ORF39 + gdl | 1 | – | – | – | 11110 | inactive |
| RpS2 (GeneID 34309) | 1 | -3 | – | – | 7684 | inactive |
| CG14647 (GeneID 40558) | 1 | – | – | – | 10103 | inactive |
| CG14647 (GeneID 40558) | 2 | – | – | – | 3700 | inactive |
| Den1 (GeneID 36339) | 1 | – | – | – | 6563 | inactive |
| CG11068 (GeneID 32357) | 1 | – | – | – | 5560 | inactive |
| CG30203 (GeneID 246514) | 1 | – | – | – | 6386 | inactive |
| CG15605 (GeneID 36933) | 1 | – | – | – | 6134 | inactive |
| CG33062 (GeneID 318840) | 1 | – | – | – | 9718 | inactive |
| mTor (GeneID 47396) | 1 | – | – | – | 29568 | inactive |
| CG30184 (GeneID 246506) | 1 | – | – | – | 9387 | inactive |
| Clbn (GeneID 43018) | 1 | – | – | – | 8423 | inactive |
| CG12851 (GeneID 37993) | 1 | – | – | – | 6598 | inactive |
| AstA (GeneID 42947) | 1 | – | – | – | 7548 | inactive |
| Pex6 + Hao | 1 | – | – | – | 8678 | inactive |
| Pex6 + Hao | 2 | – | – | – | 7692 | inactive |
| Cp19 (GeneID 39000) | 1 | – | – | – | 6551 | inactive |
| CG5828 (GeneID 33742) | 1 | – | – | – | 10209 | inactive |
| CG13545 (GeneID 37675) | 1 | – | – | – | 5272 | inactive |
| cold (GeneID 33237) | 1 | – | – | – | 30058 | inactive |
| tbrd-2 (GeneID 37207) | 1 | – | – | – | 5531 | inactive |
| CG10286 (GeneID 40786) | 1 | – | – | – | 10139 | inactive |
